Source: patent publication US8637511B2, “Aminopyrimidines useful as kinase inhibitors” (Vertex Pharmaceuticals Incorporated, priority 2005, dated 2014)
Some entries share one result that the patent states for a list of compounds.

target: T1, Aurora-2 (Aurora A) (Homo sapiens, UniProt O14965); assay: Aurora-2 (Aurora A) inhibition assay, coupled enzyme; format: biochemical; details: read-out: Aurora A kinase Ki value
T1 sequence (O14965 1-403): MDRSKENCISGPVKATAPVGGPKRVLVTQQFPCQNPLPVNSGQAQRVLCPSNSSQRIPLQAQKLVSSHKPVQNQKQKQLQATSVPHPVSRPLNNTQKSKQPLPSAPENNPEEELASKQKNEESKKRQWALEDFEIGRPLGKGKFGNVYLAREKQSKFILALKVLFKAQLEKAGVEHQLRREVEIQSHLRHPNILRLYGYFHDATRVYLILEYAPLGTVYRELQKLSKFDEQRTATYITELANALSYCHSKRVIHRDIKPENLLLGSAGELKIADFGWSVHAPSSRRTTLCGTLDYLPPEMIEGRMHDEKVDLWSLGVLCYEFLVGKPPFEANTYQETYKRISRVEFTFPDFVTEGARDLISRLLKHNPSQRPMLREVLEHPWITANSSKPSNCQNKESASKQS
Protocol: Assays were carried out in a mixture of 100 mM Hepes (pH7.5), 10 mM MgCl2, 1 mM DTT, 25 mM NaCl, 2.5 mM phosphoenolpyruvate, 300 μM NADH, 30 μg/ml pyruvate kinase and 10 μg/ml lactate dehydrogenase. […] Assays were carried out at 30° C. and in the presence of 40 nM Aurora-2.
The plate was preincubated for 10 minutes at 30° C. and the reaction initiated by addition of 10 μl of Aurora-2. Initial reaction rates were determined with a Molecular Devices SpectraMax Plus plate reader over a 10 minute time course. IC50 and Ki data were calculated from non-linear regression analysis using the Prism software package (GraphPad Prism version 3.0cx for Macintosh, GraphPad Software, San Diego Calif., USA).

| Structure (SMILES) | Ki [nM] |
| --- | --- |
| Cc1cc(Nc2cc(N3CC(F)(C4CC4)C3)nc(Sc3ccc(NC(=O)C4CC4)cc3F)n2)n[nH]1 [Compound 170] | ≤ 1 |
| Cc1cc(Nc2cc(N3CCC3)nc(Sc3ccc(NC(=O)c4cccc(Cl)c4Cl)cc3)n2)n[nH]1 [Compound 42] | ≤ 1 |

same assay, conditions: read-out: Aurora A kinase activity, Ki

| Structure (SMILES) | Ki [nM] |
| --- | --- |
| Cc1cc(Nc2cc(N3CCC3)nc(Sc3ccc(N)cc3)n2)[nH]n1 [Compound 108] | < 25 |
| Cc1cc(Nc2cc(N3CCC3)nc(Sc3ccc(NC(=O)c4ccc(Cl)cc4Cl)cc3)n2)n[nH]1 [Compound 162] | < 25 |
| Cc1cc(Nc2cc(N3CC(O)(C4CC4)C3)nc(Oc3ccc4nc(C)sc4c3)n2)[nH]n1 [Compound 180] | < 25 |
| Cc1cc(Nc2cc(N3CCC3)nc(Sc3ccc(NC(=O)C4CC4(F)F)cc3)n2)[nH]n1 (stereo not shown) [Compound 112] | < 25 |
| Cc1cc(Nc2cc(N3CCC3)nc(Sc3ccc(NC(=O)c4ncccc4C)cc3)n2)[nH]n1 [Compound 200] | < 25 |
| Cc1cc(Nc2cc(N3CC(N4CCOCC4)C3)nc(Sc3ccc4nc(CC(F)(F)F)n(C)c4c3)n2)[nH]n1 [Compound 177] | < 25 |
| Cc1cc(Nc2cc(N3CC(C)(C#N)C3)nc(Sc3ccc(NC(=O)CC(F)(F)F)cc3)n2)[nH]n1 [Compound 169] | < 25 |
| CCC(=O)Nc1ccc(Sc2nc(Nc3cc(C)n[nH]3)cc(N3CC(C)(OC(C)(C)C)C3)n2)cc1 [Compound 96] | < 25 |
| Cc1cc(Nc2cc(N3CC(C)(O)C3)nc(Sc3ccc(NC(=O)c4ccccc4Cl)cc3)n2)[nH]n1 [Compound 50] | < 25 |
| Cc1cc(Nc2cc(N3CC(F)(F)C3)nc(Sc3ccc(NC(=O)CC(F)(F)F)cc3)n2)[nH]n1 [Compound 130] | < 25 |
| Cc1cc(Nc2cc(N3CCC3)nc(Sc3ccc(NC(=O)Cc4ccc(Cl)cc4)cc3)n2)n[nH]1 [Compound 36] | < 25 |
| Cc1cc(Nc2cc(N3CCC3)nc(Sc3ccc(NC(=O)c4ocnc4C)cc3)n2)n[nH]1 [Compound 167] | < 25 |
| Cc1cc(Nc2cc(N3CC(F)(C4CC4)C3)nc(Sc3ccc(NC(=O)CN(C)C)cc3)n2)[nH]n1 [Compound 152] | < 25 |
| Cc1cc(Nc2cc(N3CCC3)nc(Sc3ccc4ccccc4c3)n2)n[nH]1 [Compound 25] | < 25 |
| CCC(=O)Nc1ccc(Sc2nc(Nc3cc(C)[nH]n3)cc(N3CC(O)C3)n2)cc1 [Compound 15] | < 25 |
| Cc1cc(Nc2cc(N3CCC3)nc(Sc3ccc(NC(=O)Cc4cccc(Cl)c4)cc3)n2)[nH]n1 [Compound 58] | < 25 |
| Cc1cc(Nc2cc(N3CC(F)(C4CC4)C3)nc(Sc3ccc(NC(=O)C4CC4)cc3F)n2)n[nH]1 [Compound 170] | < 25 |
| Cc1cc(Nc2cc(N3CCC3)nc(Sc3ccc(NC(=O)c4cccc(Cl)c4Cl)cc3)n2)n[nH]1 [Compound 42] | < 25 |

tested on: not listed separately; assay: Microsomal stability assay; format: in vitro ADME; details: after 30 minutes

| Structure (SMILES) | stability to human liver microsomes, % remaining [%] |
| --- | --- |
| Cc1cc(Nc2cc(N3CCC3)nc(Sc3ccc(N)cc3)n2)[nH]n1 [Compound 108] | > 50 |
| Cc1cc(Nc2cc(N3CCC3)nc(Sc3ccc(NC(=O)c4ccc(Cl)cc4Cl)cc3)n2)n[nH]1 [Compound 162] | > 50 |
| Cc1cc(Nc2cc(N3CC(O)(C4CC4)C3)nc(Oc3ccc4nc(C)sc4c3)n2)[nH]n1 [Compound 180] | > 50 |
| Cc1cc(Nc2cc(N3CCC3)nc(Sc3ccc(NC(=O)C4CC4(F)F)cc3)n2)[nH]n1 (stereo not shown) [Compound 112] | > 50 |
| Cc1cc(Nc2cc(N3CCC3)nc(Sc3ccc(NC(=O)c4ncccc4C)cc3)n2)[nH]n1 [Compound 200] | > 50 |
| Cc1cc(Nc2cc(N3CC(N4CCOCC4)C3)nc(Sc3ccc4nc(CC(F)(F)F)n(C)c4c3)n2)[nH]n1 [Compound 177] | > 50 |
| Cc1cc(Nc2cc(N3CC(C)(C#N)C3)nc(Sc3ccc(NC(=O)CC(F)(F)F)cc3)n2)[nH]n1 [Compound 169] | > 50 |
| CCC(=O)Nc1ccc(Sc2nc(Nc3cc(C)n[nH]3)cc(N3CC(C)(OC(C)(C)C)C3)n2)cc1 [Compound 96] | > 50 |
| Cc1cc(Nc2cc(N3CC(C)(O)C3)nc(Sc3ccc(NC(=O)c4ccccc4Cl)cc3)n2)[nH]n1 [Compound 50] | > 50 |
| Cc1cc(Nc2cc(N3CCC3)nc(Sc3ccc(NC(=O)c4ocnc4C)cc3)n2)n[nH]1 [Compound 167] | > 50 |
| Cc1cc(Nc2cc(N3CC(F)(C4CC4)C3)nc(Sc3ccc(NC(=O)CN(C)C)cc3)n2)[nH]n1 [Compound 152] | > 50 |
| Cc1cc(Nc2cc(N3CCC3)nc(Sc3ccc4ccccc4c3)n2)n[nH]1 [Compound 25] | > 50 |
| CCC(=O)Nc1ccc(Sc2nc(Nc3cc(C)[nH]n3)cc(N3CC(O)C3)n2)cc1 [Compound 15] | > 50 |
| Cc1cc(Nc2cc(N3CCC3)nc(Sc3ccc(NC(=O)Cc4cccc(Cl)c4)cc3)n2)[nH]n1 [Compound 58] | > 50 |
| Cc1cc(Nc2cc(N3CC(F)(C4CC4)C3)nc(Sc3ccc(NC(=O)C4CC4)cc3F)n2)n[nH]1 [Compound 170] | > 50 |

same assay, conditions: after 60 minutes

| Structure (SMILES) | stability to human liver microsomes, % remaining [%] |
| --- | --- |
| Cc1cc(Nc2cc(N3CCC3)nc(Sc3ccc(NC(=O)C4CC4(F)F)cc3)n2)[nH]n1 (stereo not shown) [Compound 112] | > 50 |
| Cc1cc(Nc2cc(N3CC(C)(C#N)C3)nc(Sc3ccc(NC(=O)CC(F)(F)F)cc3)n2)[nH]n1 [Compound 169] | > 50 |
| Cc1cc(Nc2cc(N3CC(C)(O)C3)nc(Sc3ccc(NC(=O)c4ccccc4Cl)cc3)n2)[nH]n1 [Compound 50] | > 50 |
| Cc1cc(Nc2cc(N3CC(F)(F)C3)nc(Sc3ccc(NC(=O)CC(F)(F)F)cc3)n2)[nH]n1 [Compound 130] | > 50 |
| Cc1cc(Nc2cc(N3CCC3)nc(Sc3ccc(NC(=O)Cc4ccc(Cl)cc4)cc3)n2)n[nH]1 [Compound 36] | > 50 |
| Cc1cc(Nc2cc(N3CC(F)(C4CC4)C3)nc(Sc3ccc(NC(=O)CN(C)C)cc3)n2)[nH]n1 [Compound 152] | > 50 |
| Cc1cc(Nc2cc(N3CC(F)(C4CC4)C3)nc(Sc3ccc(NC(=O)C4CC4)cc3F)n2)n[nH]1 [Compound 170] | > 50 |
| Cc1cc(Nc2cc(N3CCC3)nc(Sc3ccc(NC(=O)c4cccc(Cl)c4Cl)cc3)n2)n[nH]1 [Compound 42] | > 50 |
